This note sets out measurements from patent publication US20210395406A1, “REVERSIBLE CROSS-LINKING SYSTEM FOR POLYVINYLAMINES” (SOLENIS TECHNOLOGIES, L.P., priority 2020, published 2021).

A short description of the series: Determination of cross-linking time.

For the compound `O=C1CCN(C(=O)C(=O)N2CCC(=O)CC2)CC1` [Example 1.1, 1,2-bis(4-oxopiperidin-1-yl)ethane-1,2-dione], the Cross-linking time (polymer 2.1, pH 7, room temperature, molar ratio cross-linker/vinylamine units 0.5 mol %) came out at 43 s; the Cross-linking time (polymer 2.1, pH 7, room temperature, molar ratio cross-linker/vinylamine units 1.0 mol %) came to 27 s; the Cross-linking time (polymer 2.1, pH 7, room temperature, molar ratio cross-linker/vinylamine units 2.0 mol %) turned out to be 12 s; the Cross-linking time (polymer 2.2, pH 7, room temperature, molar ratio cross-linker/vinylamine units 1.0 mol %) is 33 s; the Cross-linking time (polymer 2.2, pH 7, room temperature, molar ratio cross-linker/vinylamine units 2.0 mol %) came to 20 s; the Cross-linking time (polymer 2.3, pH 7, room temperature, molar ratio cross-linker/vinylamine units 1.0 mol %) is 68 s. For the setting “polymer 2.3, pH 7, room temperature, molar ratio cross-linker/vinylamine units 2.0 mol %”, the Cross-linking time was determined as 50 s.
